The test system of this assay is CD2F1 mice, L1210 leukemia ip, survival T/C. The assay is described as follows: NCI In Vivo Anticancer Drug Screen. Data for tumor model L1210 Leukemia (intraperitoneal) in CD2F1 (CDF1) mice. The note with it: higher T/C = longer survival. The gist of the method:
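Tumor-bearing mice (transplanted tumor) were split into treated and vehicle control groups, and the measured endpoint of each treated group was divided by that of its vehicle controls.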

The mark [1] stands for this setting: T/C endpoint: mean survival time, dose: 400.0 mg/kg/injection, schedule: Q04DX003 (ip), vehicle: saline with Tween-80.
[2] abbreviates: T/C endpoint: mean survival time, dose: 100.0 mg/kg/injection, schedule: Q01DX009 (ip), vehicle: saline with Tween-80.
Setting [3] is: T/C endpoint: mean survival time, dose: 200.0 mg/kg/injection, schedule: Q01DX009 (ip), vehicle: saline with Tween-80.
[4] abbreviates: T/C endpoint: mean survival time, dose: 400.0 mg/kg/injection, schedule: Q01DX009 (ip), vehicle: saline with Tween-80.
[5] abbreviates: T/C endpoint: mean survival time, dose: 200.0 mg/kg/injection, schedule: Q04DX003 (ip), vehicle: saline with Tween-80.
The mark [6] stands for this setting: T/C endpoint: mean survival time, dose: 100.0 mg/kg/injection, schedule: Q04DX003 (ip), vehicle: saline with Tween-80.
Where [7] appears, read: T/C endpoint: mean survival time, dose: 100.0 mg/kg/injection, schedule: Q04DX002 (ip), vehicle: saline with Tween-80.

Our source for the survivor count and T/C values is PubChem BioAssay AID256 (DTP/NCI, 2004).

The list is a part of this screen's results and no random one: it gathers tests that were run many times, whatever their T/C, doses with no T/C, and many T/C values between a quarter and a half above the control. Other doses and runs of a compound stand elsewhere. T/C: endpoint of the treated group in % of that of the vehicle group. Some entries give survivors of the animals treated and no T/C: the source files T/C as zero there, which appears to mark a toxic dose or a test without result, not a measured value. Some doses without a T/C left all or most animals alive at the check, yet need not have been tolerated: the source hardly ever lists a survival T/C far under the control, and the zero likely stands for such cases as well. Survivors were counted at the toxicity check, usually on the fifth day, unless a day is given; later deaths do not show. Schedules are NCI's codes, read here as Q, the interval in days (D) or hours (H), X, the number of doses. Where survival is the endpoint, the PubChem record calls one and a half times the control and up active, and a quarter to a half above the control has no call in these data; cut-offs in other NCI protocols can differ. Some entries were tested several times; the values are given in rising order. Some T/C values are followed by the survivors on the day toxicity was checked, most often the fifth; where none is given, no animal had died by that day.

`C[N+](C)(CC(=O)Nc1ccc(Cl)c(Cl)c1)CC(=O)c1ccc(Cl)cc1`: the survivor count runs as follows: (T/C endpoint: mean survival time, dose: 50.0 mg/kg/injection, schedule: Q01DX009 (ip), vehicle: saline) 6 of 6; (T/C endpoint: mean survival time, dose: 100.0 mg/kg/injection, schedule: Q01DX009 (ip), vehicle: saline) 5 of 6. Consider `COc1cc(C2=N/C(=C\c3cc(Br)ccc3O)C(=O)O2)cc(OC)c1OC`, for which the T/C (T/C endpoint: mean survival time, dose: 200.0 mg/kg/injection, schedule: Q04DX002 (ip), vehicle: saline with Tween-80) was 126 % of control [2 of 3 alive]. `CC1(C)C2CC=C(CCN=[N+]=[N-])C1C2` (stereo not drawn): the survivor count under setting [1] was 6 of 6. With `Cc1ccccc1C1(O)CCCCC1`, under setting [1], the survivor count was 3 of 6. As for `NNC(=O)c1cccc([N+](=O)[O-])c1`, the survivor count reads like this: (T/C endpoint: mean survival time, dose: 150.0 mg/kg/injection, schedule: Q01DX001 (ip), vehicle: saline) 3 of 6; (T/C endpoint: mean survival time, dose: 300.0 mg/kg/injection, schedule: Q01DX001 (ip), vehicle: saline) 0 of 6. On to `COC(=O)CC/C=C\Cc1c(OC)c(C)c2c(c1OC=O)C(=O)OC2`, for which the T/C was 133 % of control (T/C endpoint: mean survival time, dose: 400.0 mg/kg/injection, schedule: Q04DX002 (ip), vehicle: saline with Tween-80) and 131 % of control (T/C endpoint: median survival time, dose: 400.0 mg/kg/injection, schedule: Q04DX002 (ip), vehicle: saline with Tween-80). Take `O=c1c2ccsc2ncn1C1OC(CO)C(O)C1O` (stereo not drawn): the survivor count is given as 2 of 3 under setting [2], 2 of 3 under setting [3] and 0 of 3 under setting [4]. Consider `Cc1cc(=O)c2ccccc2n1C`, for which the survivor count is listed as 0 of 3 (T/C endpoint: mean survival time, dose: 100.0 mg/kg/injection, schedule: Q04DX002 (ip), vehicle: saline); 0 of 3 (T/C endpoint: mean survival time, dose: 200.0 mg/kg/injection, schedule: Q04DX002 (ip), vehicle: saline); 0 of 3 (T/C endpoint: mean survival time, dose: 400.0 mg/kg/injection, schedule: Q04DX002 (ip), vehicle: saline). On to `Cc1ccc(C(=O)O)s1`, for which the survivor count under setting [1] was 0 of 6.

Consider `O=c1cccc[nH]1` (tested in a mixture with another compound), for which the survivor count reads like this: under setting [2], 6 of 6; under setting [3], 0 of 6; (T/C endpoint: mean survival time, dose: 400.0 mg/kg/injection, schedule: Q04DX003 (ip), vehicle: saline) 2 of 6. Consider `NNC(=O)c1ccc([N+](=O)[O-])o1`, for which the survivor count was 3 of 6 (T/C endpoint: mean survival time, dose: 75.0 mg/kg/injection, schedule: Q01DX009 (ip), vehicle: saline with Tween-80); 0 of 6 (T/C endpoint: mean survival time, dose: 150.0 mg/kg/injection, schedule: Q01DX009 (ip), vehicle: saline with Tween-80); 5 of 6 under setting [5]; 3 of 6 under setting [1]. As for `C[NH-].C[NH-].[Br][Pt][Br].[CH3-].[CH3-]`, the survivor count is, setting by setting: (T/C endpoint: mean survival time, dose: 25.0 mg/kg/injection, schedule: Q04DX003 (ip), vehicle: saline with Tween-80) 1 of 3; (T/C endpoint: mean survival time, dose: 50.0 mg/kg/injection, schedule: Q04DX003 (ip), vehicle: saline with Tween-80) 0 of 3; under setting [6], 0 of 3; under setting [5], 0 of 3; under setting [1], 0 of 3. Take `Cc1ccc(C(=O)NN)cc1`: the survivor count under setting [5] was 0 of 6 and the survivor count under setting [1] is reported as 0 of 6. On to `COCCOCCN1CCN(CCCN2c3ccccc3Sc3ccc(C(F)(F)F)cc32)CC1`, for which, for the setting “T/C endpoint: mean survival time, dose: 75.0 mg/kg/injection, schedule: Q04DX003 (ip), vehicle: saline”, the survivor count was 3 of 6.

On to `CC(=O)n1cc(F)c(=O)[nH]c1=O`, for which the T/C (T/C endpoint: mean survival time, dose: 11.0 mg/kg/injection, schedule: Q01DX009 (ip), vehicle: saline) was 143 % of control. Further, the survivor count runs as follows: under setting [2], 6 of 6; under setting [3], 6 of 6.

Regarding `O=C(O)c1ccc([As](=O)(O)O)cc1`, the survivor count reads like this: (T/C endpoint: mean survival time, dose: 50.0 mg/kg/injection, schedule: Q01DX009 (ip), vehicle: Klucel (hydroxypropylcellulose) (HPC)) 0 of 3; (T/C endpoint: mean survival time, dose: 100.0 mg/kg/injection, schedule: Q01DX009 (ip), vehicle: Klucel (hydroxypropylcellulose) (HPC)) 0 of 3. Take `COCC1OC2OC3C(COC)OC(OC4C(COC)OC(OC5C(COC)OC(OC6C(COC)OC(OC7C(COC)OC(OC8C(COC)OC(OC1C(O)C2O)C(O)C8O)C(O)C7O)C(O)C6O)C(O)C5O)C(O)C4O)C(O)C3O` (stereo not drawn) (tested in a mixture with another compound): the survivor count (T/C endpoint: mean survival time, dose: 800.0 mg/kg/injection, schedule: Q01DX009 (ip), vehicle: Klucel (hydroxypropylcellulose) (HPC)) is given as 2 of 6. Consider `COc1cc(OC)c(NC(=O)NCc2ccco2)cc1Cl`, for which, under setting [2], the survivor count was 3 of 3. With `CSc1ccc(NC(=O)CCl)cc1`, the survivor count is 3 of 6 under setting [5] and 0 of 6 under setting [1]. On to `C=C(Cl)CSCC`, for which the survivor count (T/C endpoint: mean survival time, dose: 100.0 mg/kg/injection, schedule: Q01DX009 (ip), vehicle: acetone) is recorded as 0 of 6. As for `COC(=O)C(CCC(=O)C=[N+]=N)NC(=O)C(Cl)Cl` (stereo not drawn), the survivor count was 6 of 6 (T/C endpoint: mean survival time, dose: 50.0 mg/kg/injection, schedule: Q01DX009 (ip), vehicle: saline with Tween-80); 6 of 6 under setting [2]; 0 of 6 under setting [3].

With `C=C(C)C1CCC2(COS(=O)(=O)c3ccc(C)cc3)CCC3(C)C(CCC4C5(C)CCC(OC6CCCCO6)C(C)(C)C5CCC43C)C12` (stereo not drawn), the survivor count under setting [7] is 3 of 3. Regarding `NC(=O)c1ncc[nH]c1=O`, the survivor count under setting [1] is given as 3 of 6. In the case of `c1ccc2sc(SCCSc3nc4ccccc4s3)nc2c1`, the survivor count was 3 of 3 (T/C endpoint: mean survival time, dose: 50.0 mg/kg/injection, schedule: Q04DX002 (ip), vehicle: saline with Tween-80) and 3 of 3 under setting [7]. On to `O=S(O)C(=Nc1ccccc1)Nc1ccccc1`, for which the survivor count under setting [4] is given as 0 of 6.

For `Nc1nc(N)c2c(ccc3c2ccn3Cc2cccc([N+](=O)[O-])c2)n1`, the T/C (T/C endpoint: median survival time, dose: 6.25 mg/kg/injection, schedule: Q01DX009 (ip), vehicle: saline with Tween-80) was 125 and 137 % of control.

Turning to `O=C1CN(Cl)C(=O)CN1Cl`, under “T/C endpoint: mean survival time, dose: 300.0 mg/kg/injection, schedule: Q04DX002 (ip), vehicle: saline with Tween-80”, the survivor count is 0 of 3. Regarding `COC1CC2C=C(C)/C=C/C=C/C(=O)NC(c3ccccc3)C/C=C/CCC(O)CC(=O)C2=C1O` (stereo not drawn), the survivor count reads like this: (T/C endpoint: median survival time, dose: 25.0 mg/kg/injection, schedule: Q01DX009 (ip), vehicle: Klucel (hydroxypropylcellulose) (HPC)) 0 of 6; (T/C endpoint: median survival time, dose: 50.0 mg/kg/injection, schedule: Q01DX009 (ip), vehicle: Klucel (hydroxypropylcellulose) (HPC)) 0 of 6. Regarding `O=C(O)c1ccccc1F`, the survivor count (T/C endpoint: mean survival time, dose: 400.0 mg/kg/injection, schedule: Q01DX001 (ip), vehicle: saline with Tween-80) is on record as 2 of 6. Regarding `[I-].[Ni+2].[O-]/N=C/c1ccccn1.[O-]/N=C/c1ccccn1.[O-]/N=C/c1ccccn1`, the survivor count by setting is: (T/C endpoint: mean survival time, dose: 200.0 mg/kg/injection, schedule: Q01DX001 (ip), vehicle: saline) 3 of 6; (T/C endpoint: mean survival time, dose: 400.0 mg/kg/injection, schedule: Q01DX001 (ip), vehicle: saline) 0 of 6. With `COc1ccc(NC(=S)NN)cc1`, the survivor count under setting [5] is reported as 6 of 6. With `CCCCCCCCCCC(N)P(=O)(O)O` (stereo not drawn), the survivor count under setting [6] was 4 of 6.
